Test results taken from the supplement of paper PMC12067093, “Discovery and optimisation of a covalent ligand for TRIM25 and its application to targeted protein ubiquitination” (Chemical Science, 2025).
The other results are listed elsewhere or left out.

Chains of the proteins cited; added tags and fusions are not shown. Lines headed by an entry give the natural chain unless they say otherwise; changes in a name come on top.
UniProt Q8IU81: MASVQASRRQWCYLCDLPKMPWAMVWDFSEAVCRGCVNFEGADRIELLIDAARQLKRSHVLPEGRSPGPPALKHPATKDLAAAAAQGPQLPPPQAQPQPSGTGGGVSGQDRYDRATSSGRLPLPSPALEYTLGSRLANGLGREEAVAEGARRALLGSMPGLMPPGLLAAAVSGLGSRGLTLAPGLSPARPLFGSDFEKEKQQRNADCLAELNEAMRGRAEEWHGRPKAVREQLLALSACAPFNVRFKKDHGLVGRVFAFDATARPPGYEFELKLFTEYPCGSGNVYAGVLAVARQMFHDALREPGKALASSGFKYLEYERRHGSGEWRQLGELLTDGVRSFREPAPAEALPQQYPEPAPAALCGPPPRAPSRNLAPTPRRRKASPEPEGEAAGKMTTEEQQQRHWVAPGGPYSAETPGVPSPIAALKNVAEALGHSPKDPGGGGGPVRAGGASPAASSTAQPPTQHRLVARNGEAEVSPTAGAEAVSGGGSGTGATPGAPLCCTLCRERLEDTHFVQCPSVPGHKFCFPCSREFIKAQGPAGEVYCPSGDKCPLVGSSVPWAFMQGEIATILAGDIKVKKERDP
UniProt O00410: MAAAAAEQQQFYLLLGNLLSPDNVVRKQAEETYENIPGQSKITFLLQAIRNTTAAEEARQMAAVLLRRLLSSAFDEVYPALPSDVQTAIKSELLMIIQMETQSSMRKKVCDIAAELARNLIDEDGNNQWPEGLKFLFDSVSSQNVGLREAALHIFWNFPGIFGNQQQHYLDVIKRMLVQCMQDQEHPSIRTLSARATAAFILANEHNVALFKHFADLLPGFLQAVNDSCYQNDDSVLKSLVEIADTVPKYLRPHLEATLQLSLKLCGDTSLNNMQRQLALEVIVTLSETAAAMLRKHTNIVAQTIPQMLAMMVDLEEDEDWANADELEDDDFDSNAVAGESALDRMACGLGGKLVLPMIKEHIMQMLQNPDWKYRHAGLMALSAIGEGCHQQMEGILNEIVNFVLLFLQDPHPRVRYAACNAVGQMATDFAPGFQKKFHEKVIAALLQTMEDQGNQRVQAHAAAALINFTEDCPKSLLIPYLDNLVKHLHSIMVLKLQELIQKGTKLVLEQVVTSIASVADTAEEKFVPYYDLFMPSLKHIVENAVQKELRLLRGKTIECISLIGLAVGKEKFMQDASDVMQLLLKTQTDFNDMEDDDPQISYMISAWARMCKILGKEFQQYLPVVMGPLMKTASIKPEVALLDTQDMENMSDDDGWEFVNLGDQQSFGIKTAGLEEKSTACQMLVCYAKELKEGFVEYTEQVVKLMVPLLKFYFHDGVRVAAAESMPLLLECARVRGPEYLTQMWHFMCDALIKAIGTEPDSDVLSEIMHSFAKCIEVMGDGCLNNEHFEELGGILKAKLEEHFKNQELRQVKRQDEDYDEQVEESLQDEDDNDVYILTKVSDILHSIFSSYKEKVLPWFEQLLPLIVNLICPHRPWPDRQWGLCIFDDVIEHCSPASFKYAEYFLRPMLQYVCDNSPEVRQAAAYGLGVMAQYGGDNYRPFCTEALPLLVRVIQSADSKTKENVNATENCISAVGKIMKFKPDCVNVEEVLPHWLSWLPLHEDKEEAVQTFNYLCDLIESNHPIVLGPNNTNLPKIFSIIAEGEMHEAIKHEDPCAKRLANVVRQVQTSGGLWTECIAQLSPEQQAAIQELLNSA
UniProt P46940, whole entry, looked up: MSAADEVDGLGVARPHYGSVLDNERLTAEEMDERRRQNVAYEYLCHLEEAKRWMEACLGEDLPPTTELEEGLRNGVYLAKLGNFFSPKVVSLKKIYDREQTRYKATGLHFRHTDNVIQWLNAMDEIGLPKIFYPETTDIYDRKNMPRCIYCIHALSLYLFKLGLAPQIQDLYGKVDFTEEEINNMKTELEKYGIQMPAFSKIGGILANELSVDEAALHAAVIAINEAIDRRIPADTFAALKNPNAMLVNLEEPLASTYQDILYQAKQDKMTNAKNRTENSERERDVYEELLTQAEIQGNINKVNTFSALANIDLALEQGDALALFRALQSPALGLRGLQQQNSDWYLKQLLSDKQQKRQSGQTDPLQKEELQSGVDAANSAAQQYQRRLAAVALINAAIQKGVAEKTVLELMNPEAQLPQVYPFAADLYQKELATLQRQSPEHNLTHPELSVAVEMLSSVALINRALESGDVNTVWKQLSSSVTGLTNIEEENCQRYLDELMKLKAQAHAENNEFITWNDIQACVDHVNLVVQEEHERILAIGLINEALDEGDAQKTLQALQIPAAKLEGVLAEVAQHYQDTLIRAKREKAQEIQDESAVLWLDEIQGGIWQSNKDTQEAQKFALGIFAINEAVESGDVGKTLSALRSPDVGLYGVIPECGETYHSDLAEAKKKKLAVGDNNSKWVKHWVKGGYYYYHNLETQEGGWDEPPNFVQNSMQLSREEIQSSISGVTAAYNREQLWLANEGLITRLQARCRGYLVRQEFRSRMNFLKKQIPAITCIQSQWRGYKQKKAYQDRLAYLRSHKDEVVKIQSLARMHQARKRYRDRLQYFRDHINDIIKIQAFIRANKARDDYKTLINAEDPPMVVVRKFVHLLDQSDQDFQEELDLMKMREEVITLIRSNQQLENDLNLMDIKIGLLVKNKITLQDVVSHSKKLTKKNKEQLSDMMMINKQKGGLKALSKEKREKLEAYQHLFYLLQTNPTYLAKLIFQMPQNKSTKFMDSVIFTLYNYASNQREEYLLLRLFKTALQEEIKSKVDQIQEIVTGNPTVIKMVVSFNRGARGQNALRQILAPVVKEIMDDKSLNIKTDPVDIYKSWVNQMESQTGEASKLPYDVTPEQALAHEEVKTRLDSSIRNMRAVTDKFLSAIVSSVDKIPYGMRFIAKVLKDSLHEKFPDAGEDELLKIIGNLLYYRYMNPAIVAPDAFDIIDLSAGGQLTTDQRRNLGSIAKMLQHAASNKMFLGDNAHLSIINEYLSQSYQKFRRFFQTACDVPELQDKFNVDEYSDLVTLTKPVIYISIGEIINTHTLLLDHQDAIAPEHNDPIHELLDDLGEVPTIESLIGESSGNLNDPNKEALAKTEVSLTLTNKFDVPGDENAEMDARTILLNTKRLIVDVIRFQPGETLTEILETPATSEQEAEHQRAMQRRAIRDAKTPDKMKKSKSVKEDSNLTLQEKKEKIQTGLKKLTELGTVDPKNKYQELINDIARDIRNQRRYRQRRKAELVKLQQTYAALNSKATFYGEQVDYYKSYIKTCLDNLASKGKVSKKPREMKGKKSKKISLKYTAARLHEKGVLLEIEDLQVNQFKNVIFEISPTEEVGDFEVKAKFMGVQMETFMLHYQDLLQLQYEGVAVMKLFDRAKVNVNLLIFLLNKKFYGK
UniProt Q96SY0, whole entry, looked up: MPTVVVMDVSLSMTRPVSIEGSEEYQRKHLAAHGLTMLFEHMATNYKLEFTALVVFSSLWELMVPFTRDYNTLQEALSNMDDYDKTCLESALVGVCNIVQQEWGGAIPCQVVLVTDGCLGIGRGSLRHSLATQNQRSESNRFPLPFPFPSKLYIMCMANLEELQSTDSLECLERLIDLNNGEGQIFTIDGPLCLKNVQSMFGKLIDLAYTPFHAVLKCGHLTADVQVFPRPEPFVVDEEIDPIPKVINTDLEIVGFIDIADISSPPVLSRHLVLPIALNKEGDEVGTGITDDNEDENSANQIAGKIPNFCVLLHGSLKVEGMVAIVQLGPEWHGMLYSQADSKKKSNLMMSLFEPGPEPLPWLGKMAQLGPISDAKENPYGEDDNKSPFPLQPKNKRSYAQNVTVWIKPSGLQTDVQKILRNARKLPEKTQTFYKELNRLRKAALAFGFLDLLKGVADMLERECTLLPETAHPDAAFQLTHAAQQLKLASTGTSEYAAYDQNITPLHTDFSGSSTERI
UniProt P06213, whole entry, looked up: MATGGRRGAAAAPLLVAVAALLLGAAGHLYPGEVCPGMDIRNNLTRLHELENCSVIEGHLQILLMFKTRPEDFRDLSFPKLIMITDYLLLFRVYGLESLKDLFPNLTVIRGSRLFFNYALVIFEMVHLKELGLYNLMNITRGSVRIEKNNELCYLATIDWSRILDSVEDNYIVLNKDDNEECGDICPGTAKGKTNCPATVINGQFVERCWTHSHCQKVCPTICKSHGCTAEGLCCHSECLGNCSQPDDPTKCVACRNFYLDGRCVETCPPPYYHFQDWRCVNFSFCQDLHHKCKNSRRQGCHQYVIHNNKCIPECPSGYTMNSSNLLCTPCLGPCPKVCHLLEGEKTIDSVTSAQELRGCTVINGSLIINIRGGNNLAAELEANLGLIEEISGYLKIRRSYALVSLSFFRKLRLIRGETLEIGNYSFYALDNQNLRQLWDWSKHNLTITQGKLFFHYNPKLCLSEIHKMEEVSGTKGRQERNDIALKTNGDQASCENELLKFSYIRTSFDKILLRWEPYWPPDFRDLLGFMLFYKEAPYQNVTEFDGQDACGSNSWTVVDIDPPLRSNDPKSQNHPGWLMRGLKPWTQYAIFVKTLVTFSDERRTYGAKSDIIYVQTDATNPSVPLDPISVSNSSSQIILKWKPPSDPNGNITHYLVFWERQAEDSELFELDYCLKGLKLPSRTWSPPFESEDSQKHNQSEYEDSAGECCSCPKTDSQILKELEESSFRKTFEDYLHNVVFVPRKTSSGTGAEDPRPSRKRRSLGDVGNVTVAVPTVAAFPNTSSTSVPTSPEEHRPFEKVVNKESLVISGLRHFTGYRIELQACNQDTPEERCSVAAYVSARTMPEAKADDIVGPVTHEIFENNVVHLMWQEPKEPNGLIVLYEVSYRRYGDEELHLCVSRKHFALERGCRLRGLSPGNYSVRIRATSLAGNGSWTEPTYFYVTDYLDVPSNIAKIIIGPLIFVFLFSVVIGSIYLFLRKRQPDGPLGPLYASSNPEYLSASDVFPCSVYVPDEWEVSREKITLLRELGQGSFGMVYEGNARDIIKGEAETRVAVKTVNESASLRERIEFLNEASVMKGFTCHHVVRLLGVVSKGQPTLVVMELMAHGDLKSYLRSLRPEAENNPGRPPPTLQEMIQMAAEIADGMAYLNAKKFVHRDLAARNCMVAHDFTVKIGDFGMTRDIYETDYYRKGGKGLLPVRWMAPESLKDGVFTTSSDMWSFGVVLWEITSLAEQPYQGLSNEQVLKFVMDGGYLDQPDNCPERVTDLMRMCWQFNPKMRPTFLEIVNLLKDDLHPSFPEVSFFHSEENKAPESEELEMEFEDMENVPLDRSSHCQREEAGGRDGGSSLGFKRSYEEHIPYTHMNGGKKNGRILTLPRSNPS
UniProt Q9ULR0: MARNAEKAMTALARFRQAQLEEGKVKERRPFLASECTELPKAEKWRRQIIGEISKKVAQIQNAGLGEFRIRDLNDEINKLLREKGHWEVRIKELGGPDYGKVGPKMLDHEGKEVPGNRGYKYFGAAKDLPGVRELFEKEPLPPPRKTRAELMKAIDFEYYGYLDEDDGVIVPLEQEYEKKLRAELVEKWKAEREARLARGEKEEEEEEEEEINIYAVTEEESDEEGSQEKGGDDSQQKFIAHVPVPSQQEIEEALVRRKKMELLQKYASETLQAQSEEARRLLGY
UniProt P13612, whole entry, looked up: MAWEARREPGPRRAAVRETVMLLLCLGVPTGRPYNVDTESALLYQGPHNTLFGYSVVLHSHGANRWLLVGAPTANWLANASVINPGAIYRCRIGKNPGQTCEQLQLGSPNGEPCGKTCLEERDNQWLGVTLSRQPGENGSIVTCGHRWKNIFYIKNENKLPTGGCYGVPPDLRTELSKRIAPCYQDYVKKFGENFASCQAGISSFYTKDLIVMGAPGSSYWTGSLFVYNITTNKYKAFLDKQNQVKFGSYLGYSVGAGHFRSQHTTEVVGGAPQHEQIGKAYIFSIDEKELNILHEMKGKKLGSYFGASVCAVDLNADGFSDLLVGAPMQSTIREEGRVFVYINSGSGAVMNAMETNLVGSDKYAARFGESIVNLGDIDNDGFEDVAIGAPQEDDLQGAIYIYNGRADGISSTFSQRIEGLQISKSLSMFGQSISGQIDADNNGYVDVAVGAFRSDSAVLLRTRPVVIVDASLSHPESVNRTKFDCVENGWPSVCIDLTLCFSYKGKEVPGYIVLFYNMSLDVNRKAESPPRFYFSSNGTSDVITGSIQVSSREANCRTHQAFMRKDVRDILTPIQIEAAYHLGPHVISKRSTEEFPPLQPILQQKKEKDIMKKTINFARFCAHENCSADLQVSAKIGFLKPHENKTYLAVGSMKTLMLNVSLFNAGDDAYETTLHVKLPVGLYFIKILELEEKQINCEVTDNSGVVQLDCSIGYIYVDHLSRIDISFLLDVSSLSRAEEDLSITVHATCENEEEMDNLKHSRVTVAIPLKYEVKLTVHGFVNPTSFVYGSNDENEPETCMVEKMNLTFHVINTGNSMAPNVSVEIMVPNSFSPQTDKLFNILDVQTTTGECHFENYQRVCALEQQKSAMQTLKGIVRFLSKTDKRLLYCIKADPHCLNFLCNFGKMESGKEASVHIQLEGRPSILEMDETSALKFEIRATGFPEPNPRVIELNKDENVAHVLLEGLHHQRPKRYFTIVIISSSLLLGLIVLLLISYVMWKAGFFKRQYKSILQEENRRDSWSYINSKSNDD

compound: Cc1cc(ccc1-c1ccccc1)C(=O)N1CCCN(CC1)C(=O)CCl [compound 10]; experiment: probe-labelled cysteine peptide fold change vs DMSO (competition) (log2 fold change); higher = less target engagement (more negative = stronger competition); settings: 50 µM; THP-1; incubation time: 4 h
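Further: competitive profiling in live THP-1 cells: cysteine peptides tagged with an iodoacetamide desthiobiotin (IA-DTB) probe, intensity after compound treatment relative to DMSO-treated cells.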

| Target | probe-labelled cysteine peptide fold change |
| --- | --- |
| ITGB2_P05107_73_GCAADDIMDPTSLAETQEDHNGGQK (UniProt P05107) | 0.0533 |
| ITGA7_Q13683_539+546_SIDLEQPNCAGGHSVCVDLR (UniProt Q13683) | -0.659 |
| ITPA_Q9BY32_57_CQEAVR (UniProt Q9BY32) | 0.0275 |
| ITGB1_P05556_301_LGGIVLPNDGQCHLENNMYTMSHYYDYPSIAHLVQK (UniProt P05556) | 0.0542 |
| ITGAL_P20701_998_IQPSIHDHNIPTLEAVVGVPQPPSEGPITHQWSVQMEPPVPCHYEDLER (UniProt P20701) | 0.742 |
| IRF2BP1_Q8IU81_15_RQWCYLCDLPK (UniProt Q8IU81) | 0.0862 |
| IPO11_Q9UI26_894_DCMLMSHLEEPKVTEDEEPPTEQDKR (UniProt Q9UI26) | -0.572 |
| INTS13_Q9NVM9_406_SILEDPPSISEGCGGR (UniProt Q9NVM9) | 0.0765 |
| ITGB2_P05107_573+575_CHPGFEGSACQCER (UniProt P05107) | -0.361 |
| IPO5_O00410_687_STACQMLVCYAK (UniProt O00410) | 0.00854 |
| ITGAX_P20702_848+863_SLHLTCDSAPVGSQGTWSTSCR (UniProt P20702) | 0.109 |
| IQGAP1_P46940_45_QNVAYEYLCHLEEAKR (UniProt P46940) | -0.0751 |
| INTS14_Q96SY0_218_CGHLTADVQVFPRPEPFVVDEEIDPIPK (UniProt Q96SY0) | 0.138 |
| ITGA5_P08648_156_AHGSSILACAPLYSWR (UniProt P08648) | 0.231 |
| INTS8_Q75QN2_701_LGQLLAATCK (UniProt Q75QN2) | 0.113 |
| INTS4_Q96HW7_109_TAGFSPDCIMDDAINILQNEK (UniProt Q96HW7) | 0.123 |
| INTS14_Q96SY0_171_LYIMCMANLEELQSTDSLECLER (UniProt Q96SY0) | 0.0438 |
| IP6K2_Q9UHH9_104_GDHGIVDIVDNSDCEPK (UniProt Q9UHH9) | 0.801 |
| INPPL1_O15357_1187_ESIQEDLAEEAPCLQGGR (UniProt O15357) | 0.152 |
| INTS1_Q8N201_2099_LMSSAEECCR (UniProt Q8N201) | -0.34 |

| Target | probe-labelled cysteine peptide fold change |
| --- | --- |
| IPO5_O00410_915_YAEYFLRPMLQYVCDNSPEVR (UniProt O00410) | -0.0774 |
| IQGAP1_P46940_45_QNVAYEYLCHLEEAK (UniProt P46940) | 0.235 |
| INTS5_Q6P9B9_485_NHVGELCGETLR (UniProt Q6P9B9) | 0.00468 |
| IRF8_Q02556_306_VFCSGNAVVCK (UniProt Q02556) | -0.648 |
| INSR_P06213_153_NNELCYLATIDWSR (UniProt P06213) | 0.24 |
| IRF2BP1_Q8IU81_518_ERLEDTHFVQCPSVPGHK (UniProt Q8IU81) | -0.399 |
| ISY1_Q9ULR0_36_RPFLASECTELPK (UniProt Q9ULR0) | 0.176 |
| INTS10_Q9NVR2_176_LFVCDVLPLIINNHDVR (UniProt Q9NVR2) | 0.579 |
| INTS3_Q68E01_843_YKEHPEALSCLLLQLR (UniProt Q68E01) | -0.129 |
| INPP5F_Q9Y2H2_725_NPEEDGKDTLQCIAEMLQITK (UniProt Q9Y2H2) | -0.295 |
| IPO5_O00410_110_VCDIAAELAR (UniProt O00410) | 0.102 |
| ITGA4_P13612_861_VCALEQQK (UniProt P13612) | 0.247 |
| INSR_P06213_196_TNCPATVINGQFVER (UniProt P06213) | -0.103 |
| ITGB1_P05556_691_DKLPQPVQPDPVSHCK (UniProt P05556) | -0.288 |
| IPO7_O95373_90_NMITQYWPDRETAPGDISPYTIPEEDRHCIR (UniProt O95373) | -0.187 |
| INTS13_Q9NVM9_178_MLEDCVQETIHEHNK (UniProt Q9NVM9) | -0.081 |
| INTS12_Q96CB8_209_LVWYCAR (UniProt Q96CB8) | -0.762 |
| IRF2BP2_Q7Z5L9_19_QSCYLCDLPR (UniProt Q7Z5L9) | -0.0298 |
| INSR_P06213_462_LCLSEIHK (UniProt P06213) | 0.0658 |

Taken from the listing (3 entries):

| Target | probe-labelled cysteine peptide fold change |
| --- | --- |
| IPO5_O00410_110_VCDIAAELAR (UniProt O00410) | 0.102 |
| ITGA4_P13612_861_VCALEQQK (UniProt P13612) | 0.247 |
| INSR_P06213_196_TNCPATVINGQFVER (UniProt P06213) | -0.103 |
